From patent US11414436B2, “Non-coordinating anion type activators containing cation having large alkyl groups” (ExxonMobil Chemical Patents Inc., priority 2018, dated 2022)

How the values were obtained:
[1] = RUN B: ethylene-octene polymerization in parallel pressure reactor, activator diluent toluene or methylcyclohexane; conditions: polymer weight, ethylene-octene copolymerization, Cat 1 (MCN-1)
Protocol: RUN B: Polymerization in Parallel Pressure Reactor.
A series of ethylene-octene polymerizations were performed in the parallel pressure reactor according to the procedure described above. […] In a typical experiment an automated syringe was used to introduce into the reactor the following reagents, if utilized, in the following order: isohexane (0.35 mL), an isohexane solution of TNOAL scavenger (0.005 M, 60 μL), additional isohexane (0.35 mL), a toluene solution of the respective polymerization catalyst (150 μL, 0.4 mM, 20 nm [cat]/100 μL [toluene]), additional isohexane (0.35 mL), a toluene or methylcyclohexane solution of the respective activator (150 μL, 0.4 mM, (20 nm [act]/100 μL[ diluent])), then additional isohexane so that the total solvent volume for each run was 5 mL. Catalyst and activator were used in a 1:1 ratio. Each reaction was performed at a specified temperature range between 50 and 120° C., typically 95° C., while applying about 100 psig of ethylene (monomer) gas. Each reaction was allowed to run for about 1 hour (˜3600 seconds) or until approximately 20 psig of ethylene gas uptake was observed, at which point the reactions were quenched with air (˜300 psig). When sufficient polymer yield was attained (e.g., at least ˜10 mg), the polyethylene product was analyzed by Rapid GPC, described below.
In a typical experiment, the anilinium borate activators were combined with toluene or methylcyclohexane as diluent and introduced to the parallel, pressure reactor via syringe. By this mechanism of activator introduction, only well dissolved activators could be delivered to the reactor providing a means to discriminate between the polymerization performance of long chain soluble anilinium borates vs. conventional anilinium borates. Following addition of activator, the catalyst Cat 1 was introduced, via syringe as well-dissolved toluene solution and the polymerization was conducted per the methodology described above.

[2] = FT-IR of polymer product (wt % octene / ethylene); conditions: ethylene-octene copolymer, Cat 1 (MCN-1)
[3] = Rapid GPC of polymer product (Mw, Mn, PDI); conditions: for Average Mn / Average Mw / Average Mz / Average Mw/Mn: ethylene-octene copolymer, Cat 1 (MCN-1); for Mn (g/mol) / Mw (g/mol): polypropylene, MCN-1, 85° C.
[4] = activator diluent MeCy (methylcyclohexane)
[5] = activator diluent Toluene, listed as C2
[6] = Activator Equiv 1.0, TNOAL 0.25 umol
[7] = Activator Equiv 1.0, TNOAL 0.50 umol
[8] = Activator Equiv 1.0, TNOAL 0.75 umol
[9] = Activator Equiv 1.2, TNOAL 0.25 umol
[10] = Activator Equiv 1.2, TNOAL 0.50 umol
[11] = Activator Equiv 1.2, TNOAL 0.75 umol
[12] = Activator Equiv 1.4, TNOAL 0.25 umol
[13] = Activator Equiv 1.4, TNOAL 0.50 umol
[14] = Activator Equiv 1.4, TNOAL 0.75 umol
[15] = Activator Equiv 1.6, TNOAL 0.25 umol
[16] = Activator Equiv 1.6, TNOAL 0.50 umol
[17] = Activator Equiv 1.6, TNOAL 0.75 umol
[18] = activator diluent Toluene, listed as C1

N,N-dimethylanilinium tetrakis(heptafluoronaphthalen-2-yl)borate [DMAH-BF28, reference compound]
Weights [1, 4]: 0 g
Weights [1, 5]: 0.076 g and 0.08 g and 0.083 g and 0.078 g
mol % 1-octene [2, 4]: 0.0 mol %
mol % 1-octene [2, 5]: 7.4 mol % and 8.7 mol % and 9.1 mol % and 9.5 mol %
wt % 1-octene [2, 5]: 24 wt % and 28 wt % and 29 wt % and 30 wt %
Average Mn [3, 5]: 249183 g/mol and 207640 g/mol and 225367 g/mol and 252497 g/mol
Average Mw [3, 5]: 461835 g/mol and 433633 g/mol and 449360 g/mol and 456293 g/mol
Average Mz [3, 5]: 1140095 g/mol and 1123865 g/mol and 1096197 g/mol and 996515 g/mol
Mn (g/mol) [3, 6]: 68,378 g/mol and 80,712 g/mol
Mw (g/mol) [3, 6]: 139,625 g/mol and 152,003 g/mol
Mn (g/mol) [3, 7]: 100,295 g/mol and 102,408 g/mol
Mw (g/mol) [3, 7]: 176,336 g/mol and 192,634 g/mol
Mn (g/mol) [3, 8]: 124,675 g/mol and 125,425 g/mol
Mw (g/mol) [3, 8]: 197,124 g/mol and 222,459 g/mol
Mn (g/mol) [3, 9]: 67,691 g/mol and 65,705 g/mol
Mw (g/mol) [3, 9]: 134,516 g/mol and 158,859 g/mol
Mn (g/mol) [3, 10]: 84,581 g/mol and 84,798 g/mol
Mw (g/mol) [3, 10]: 148,426 g/mol and 155,759 g/mol
Mn (g/mol) [3, 11]: 110,164 g/mol and 100,660 g/mol
Mw (g/mol) [3, 11]: 185,475 g/mol and 181,659 g/mol
Mn (g/mol) [3, 12]: 70,008 g/mol and 66,816 g/mol
Mw (g/mol) [3, 12]: 139,249 g/mol and 145,757 g/mol
Mn (g/mol) [3, 13]: 71,584 g/mol and 80,613 g/mol
Mw (g/mol) [3, 13]: 136,225 g/mol and 152,797 g/mol
Mn (g/mol) [3, 14]: 92,645 g/mol and 113,934 g/mol
Mw (g/mol) [3, 14]: 157,862 g/mol and 192,254 g/mol
Mn (g/mol) [3, 15]: 59,107 g/mol
Mw (g/mol) [3, 15]: 125,607 g/mol
Mn (g/mol) [3, 16]: 88,755 g/mol and 83,513 g/mol
Mw (g/mol) [3, 16]: 157,116 g/mol and 166,442 g/mol
Mn (g/mol) [3, 17]: 90,031 g/mol and 106,799 g/mol
Mw (g/mol) [3, 17]: 161,904 g/mol and 167,856 g/mol

CCCCCCCCCCCCCCCCCC[NH+](C)c1ccc(CCCC)cc1.Fc1c(F)c(F)c2c(F)c([B-](c3c(F)c(F)c4c(F)c(F)c(F)c(F)c4c3F)(c3c(F)c(F)c4c(F)c(F)c(F)c(F)c4c3F)c3c(F)c(F)c4c(F)c(F)c(F)c(F)c4c3F)c(F)c(F)c2c1F [LCSA 1]
Weights [1, 4]: 0.073 g and 0.077 g and 0.082 g
Weights ([1]; activator diluent Toluene): 0.082 g and 0.08 g and 0.086 g and 0.085 g
mol % 1-octene [2, 4]: 8.9 mol % and 10.7 mol % and 9.8 mol % and 9.9 mol %
wt % 1-octene [2, 4]: 28 wt % and 32 wt % and 30 wt % and 31 wt %
mol % 1-octene ([2]; activator diluent Toluene): 9.4 mol % and 9.5 mol % and 9.1 mol % and 10.3 mol %
wt % 1-octene ([2]; activator diluent Toluene): 29 wt % and 30 wt % and 31 wt %

CCCCCCCCCCCCCCCCCCc1ccc([NH+](CCCCCCCCCCCCCCCCCC)CCCCCCCCCCCCCCCCCC)cc1.Fc1c(F)c(F)c2c(F)c([B-](c3c(F)c(F)c4c(F)c(F)c(F)c(F)c4c3F)(c3c(F)c(F)c4c(F)c(F)c(F)c(F)c4c3F)c3c(F)c(F)c4c(F)c(F)c(F)c(F)c4c3F)c(F)c(F)c2c1F [LCSA 3]
Weights [1, 4]: 0.077 g and 0.076 g and 0.08 g
Weights ([1]; activator diluent Toluene): 0.077 g and 0.078 g and 0.075 g
mol % 1-octene [2, 4]: 9.8 mol % and 8.4 mol % and 9.4 mol % and 9.0 mol %
wt % 1-octene [2, 4]: 30 wt % and 27 wt % and 29 wt % and 28 wt %
mol % 1-octene ([2]; activator diluent Toluene): 10.8 mol % and 9.2 mol % and 10.2 mol % and 9.1 mol %
wt % 1-octene ([2]; activator diluent Toluene): 33 wt % and 29 wt % and 31 wt %
Average Mn [3, 4]: 268267 g/mol and 240403 g/mol and 250558 g/mol and 275944 g/mol
Average Mw [3, 4]: 480296 g/mol and 464198 g/mol and 476571 g/mol and 503106 g/mol
Average Mw/Mn [3, 4]: 1.8 and 1.9
Average Mz [3, 4]: 1201763 g/mol and 1148933 g/mol and 1140387 g/mol and 1151742 g/mol
Average Mn ([3]; activator diluent Toluene): 262066 g/mol and 257358 g/mol and 239953 g/mol and 273074 g/mol
Average Mw ([3]; activator diluent Toluene): 472959 g/mol and 492586 g/mol and 458672 g/mol and 503018 g/mol
Average Mw/Mn ([3]; activator diluent Toluene): 1.8 and 1.9
Average Mz ([3]; activator diluent Toluene): 1118519 g/mol and 1230830 g/mol and 1105198 g/mol and 1214488 g/mol

CCCCCCCCCCCCCCCCCCc1ccc([NH+](C)CCCCCCCCCCCCCCCCCC)cc1.Fc1c(F)c(F)c2c(F)c([B-](c3c(F)c(F)c4c(F)c(F)c(F)c(F)c4c3F)(c3c(F)c(F)c4c(F)c(F)c(F)c(F)c4c3F)c3c(F)c(F)c4c(F)c(F)c(F)c(F)c4c3F)c(F)c(F)c2c1F [LCSA 2]
Weights [1, 4]: 0.082 g and 0.079 g and 0.085 g and 0.083 g
Weights ([1]; activator diluent Toluene): 0.082 g and 0.08 g and 0.083 g
mol % 1-octene [2, 4]: 9.9 mol % and 9.8 mol % and 10.0 mol % and 9.6 mol %
wt % 1-octene [2, 4]: 31 wt % and 30 wt %
mol % 1-octene ([2]; activator diluent Toluene): 11.2 mol % and 8.7 mol % and 10.6 mol % and 9.4 mol %
wt % 1-octene ([2]; activator diluent Toluene): 34 wt % and 27 wt % and 32 wt % and 29 wt %
Average Mn [3, 4]: 247443 g/mol and 208306 g/mol and 228204 g/mol and 220570 g/mol
Average Mw [3, 4]: 467956 g/mol and 398860 g/mol and 432196 g/mol and 416185 g/mol
Average Mw/Mn [3, 4]: 1.9
Average Mz [3, 4]: 1216060 g/mol and 882745 g/mol and 1015931 g/mol and 967860 g/mol
Average Mn ([3]; activator diluent Toluene): 230389 g/mol and 211253 g/mol and 194469 g/mol and 215969 g/mol
Average Mw ([3]; activator diluent Toluene): 425784 g/mol and 440430 g/mol and 392292 g/mol and 444320 g/mol
Average Mw/Mn ([3]; activator diluent Toluene): 1.8 and 2.1 and 2.0
Average Mz ([3]; activator diluent Toluene): 1007444 g/mol and 1206377 g/mol and 948798 g/mol and 1166464 g/mol

N,N-Dimethylanilinium tetrakis(pentafluorophenyl)borate [DMAH-BF20, reference compound]
Weights [1, 18]: 0.09 g and 0.087 g and 0.093 g
mol % 1-octene [2, 4]: 0.0 mol %
mol % 1-octene [2, 18]: 10.0 mol % and 9.5 mol % and 8.8 mol % and 9.1 mol %
wt % 1-octene [2, 18]: 31 wt % and 30 wt % and 28 wt % and 29 wt %
Average Mn [3, 18]: 101493 g/mol and 104035 g/mol and 101561 g/mol and 98530 g/mol
Average Mw [3, 18]: 227087 g/mol and 226021 g/mol and 220280 g/mol and 224056 g/mol
Average Mz [3, 18]: 676006 g/mol and 634408 g/mol and 708241 g/mol and 641515 g/mol

Where “and” joins values, the source holds several entries; their conditions need not be identical. Equal entries are not always repeated.
